# Assay results from patent publication US9115213B2, “Phenotypic reversion of pancreatic carcinoma cells” (The Research Foundation of State University of New York, priority 2004, dated 2015).
# “Also recorded” adds a separate entry of the source. At least one peptide structure holds a part that was inferred or is arguable (an end, a ring closure or a residue). Where a SMILES comes first, the peptide text is derived from it.
# Legend:
# [1] = system: ras-transformed pancreatic cancer (TUC-3) cells; test: Peptide incubation with TUC-3 cells (morphology, phenotypic reversion); type: cell-based, rat
# [2] = target: T1, oncogenic ras-p21 (Val 12-p21) (Homo sapiens, UniProt P01112, G12V); conditions: cited from earlier work
# T1 construct: host or cells: microinjected into Xenopus laevis oocytes
# c-raf = conditions: cited from earlier work
# [3] = target: Val 12-p21-JNK interaction (Homo sapiens, UniProt P01112, G12V); conditions: cited from earlier work
# Val 12-Ha-ras-p21 = target: T2, Val 12-Ha-ras-p21 (Homo sapiens, UniProt P01112, G12V); test: Co-immunoprecipitation of raf, MEK, JNK and MAPK with injected Val 12-Ha-ras-p21 in oocytes; type: cell-based, Xenopus laevis; conditions: peptide co-injected with Val 12-p21 into oocytes; anti-Ha-ras immunoprecipitate (FIG. 4A)
# T2 construct: host or cells: protein microinjected into Xenopus laevis oocytes
# Method: In these experiments, the Ha-ras form of Val 12-p21 was injected into oocytes (100 ug/ml, 50 nl per oocyte) either alone or together with inhibitory p21 peptide (residues 96-110 shown in this figure). […] The lysate was centrifuged for 15 min at 17000×g at 4° C., and the supernatant was either used directly. The lysates were then subjected to immunoprecipitation using an anti-Ha-ras antibody (CalBiochem). In this procedure, cell lysate was first pre-cleared by incubation with 50 ul of protein A beads for 1 hr at room temperature, followed by centrifugation. Anti-Ha-ras antibody was added to the lysate such that 0.1 ug antibody was added per 250 ug of pre-cleared lysate protein. A volume of 25 μl protein A agarose beads (Sigma) was then added to the incubation mixture, and the resulting mixture was incubated overnight at 4° C., after which the mixture was centrifuged, and the immunoprecipitate was washed three times with 0.5 ml of kinase buffer as described above. Immunoprecipitates were subjected to SDS-PAGE as described above in the preceding paragraph and blotted with anti-Ha-ras (1:2000 with 0.25% BSA), anti-raf (CalBiochem, San Diego, Calif.), diluted 1:2000 with 0.25% BSA, anti-JNK polyclonal antibody (1:2000), anti-MEK (CalBiochem) and anti-MAPK, diluted 1:2000 with 0.25% BSA. […]
# [4] = system: insulin-activated wild-type ras-p21; conditions: cited from earlier work
structure (smiles),measurement,setting,value
"CC[C@H](C)[C@H](NC(=O)[C@@H](NC(=O)[C@@H](NC(=O)[C@H](CCC(N)=O)NC(=O)[C@H](CCCCN)NC(=O)[C@H](CCCNC(=N)N)NC(=O)[C@H](Cc1ccc(O)cc1)NC(=O)[C@H](CO)NC(=O)[C@H](CC(=O)O)NC(=O)[C@H](CCC(=O)O)NC(=O)[C@@H](NC(=O)[C@@H](N)[C@@H](C)O)[C@@H](C)CC)C(C)C)C(C)C)C(=O)N[C@@H](CC(=O)O)C(=O)O [PNC-7, TIEDSYRKQVVID] (H-TIEDSYRKQVVID-OH)",phenotypic reversion of TUC-3 cells,[1],100%
same,oncogenic ras-p21-induced oocyte maturation / mitogenic signaling in oocytes,[2],block mitogenic signaling by oncogenic ras-p21 in oocytes; also recorded: block oncogenic ras-induced oocyte maturation
same,blocks signal transduction through c-raf,c-raf,blocks signal transduction through c-raf
same,c-raf-induced oocyte maturation,c-raf,strongly inhibits c-raf-induced oocyte maturation
same,interferes with / blocks Val 12-p21-JNK interaction,[3],but not
same,"co-precipitation of raf, MEK, JNK and MAPK with Val 12-ras-p21",Val 12-Ha-ras-p21,Block the Interaction of JNK and MAP Kinase with Val 12-Ras p21 Inside the Cell
same,insulin-activated wild-type ras-p21-induced oocyte maturation / signaling,[4],little effect; also recorded: do not block insulin-activated wild type ras-induced maturation
"CC[C@H](C)[C@H](NC(=O)[C@H](CCCNC(=N)N)NC(=O)[C@H](CCCCN)NC(=O)CNC(=O)[C@@H](NC(=O)[C@H](CO)NC(=O)[C@H](Cc1ccccc1)NC(=O)[C@@H]1CCCN1C(=O)[C@@H](N)CCSC)[C@@H](C)O)C(=O)N[C@@H](CCSC)C(=O)N[C@@H](CC(C)C)C(=O)NCC(=O)N[C@@H](CCC(=O)O)C(=O)N[C@@H](CCCCN)C(=O)N[C@@H](CCCCN)C(=O)N[C@@H](Cc1c[nH]c2ccccc12)C(=O)N[C@@H](CCCCN)C(=O)N[C@@H](CCSC)C(=O)N[C@@H](CCCNC(=N)N)C(=O)N[C@@H](CCCNC(=N)N)C(=O)N[C@@H](CC(N)=O)C(=O)N[C@@H](CCC(N)=O)C(=O)N[C@@H](Cc1ccccc1)C(=O)N[C@@H](Cc1c[nH]c2ccccc12)C(=O)N[C@H](C(=O)N[C@@H](CCCCN)C(=O)N[C@H](C(=O)N[C@@H](CCC(N)=O)C(=O)N[C@@H](CCCNC(=N)N)C(=O)NCC(=O)O)C(C)C)C(C)C [X13-leader, reference compound]",effect on TUC-3 cells (proliferation),[1],absence of any effect
same,effect on transformed morphology of TUC-3 cells,[1]; incubation for two weeks,no effect on their transformed morphologies
